In PubChem BioAssay AID1671190 (National Center for Advancing Translational Sciences (NCATS), 2021):
About 6,100 (1.1%) of roughly 580,000 compounds were called active. Inconclusive means that the source gave no clear call. Such entries were picked first, then a sample of the others. Calls follow the shape of the dose curve; as a rule, active = well fitted inhibition curve with a large enough effect; inconclusive = small, poorly fitted or top-dose-only effect, or another doubt; inactive = no such curve, though single readings can be large or run the other way. Where the call is inconclusive, the potency comes from a doubtful curve fit.

By UniProt entry, the sequences of proteins in these tests, tags left out. Where a name states a change or a piece, a line headed by the entry shows the natural chain unless it says otherwise.
UniProt P18054: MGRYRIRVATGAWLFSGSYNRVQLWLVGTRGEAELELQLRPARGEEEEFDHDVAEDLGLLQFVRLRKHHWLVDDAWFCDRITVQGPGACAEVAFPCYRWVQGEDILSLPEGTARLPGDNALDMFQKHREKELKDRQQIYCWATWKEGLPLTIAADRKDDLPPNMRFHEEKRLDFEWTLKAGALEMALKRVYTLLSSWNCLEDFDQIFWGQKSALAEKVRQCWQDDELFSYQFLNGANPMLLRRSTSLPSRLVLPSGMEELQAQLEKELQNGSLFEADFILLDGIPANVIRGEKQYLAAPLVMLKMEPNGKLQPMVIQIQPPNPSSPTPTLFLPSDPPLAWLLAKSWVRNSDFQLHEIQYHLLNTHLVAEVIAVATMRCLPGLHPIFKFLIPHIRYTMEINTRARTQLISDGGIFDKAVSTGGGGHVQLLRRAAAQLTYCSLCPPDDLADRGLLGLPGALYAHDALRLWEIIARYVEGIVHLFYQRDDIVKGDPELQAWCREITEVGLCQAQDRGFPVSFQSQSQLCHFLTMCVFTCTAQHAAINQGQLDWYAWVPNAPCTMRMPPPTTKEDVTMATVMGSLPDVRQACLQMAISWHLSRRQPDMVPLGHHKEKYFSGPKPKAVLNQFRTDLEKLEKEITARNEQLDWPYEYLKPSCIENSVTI

Target: Polyunsaturated fatty acid lipoxygenase ALOX12 (Homo sapiens) (UniProt P18054)
Assay: Primary qHTS assay for inhibitors of human arachidonate 12S-lipoxygenase (ALOX12): Round 2
Conditions: purified 12hLO, xylenol orange hydroperoxide absorbance; activity change, negative = inhibition: at 108 µM (top of the series) unless noted
Procedure, shortened: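 Hydroperoxide product was detected by ferrous iron/xylenol orange as the 573 to 405 nm absorbance ratio. Arachidonic acid at 40 uM (final) was turned over for 30 min at room temperature by 150 nM human 12hLO, pH 7.0 Hepes buffer, after 15 min compound preincubation.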
% is scaled to controls: 0 for no effect and ±100 for the full control effect; potency is read from the fitted curve at half-maximal effect.

Row | Structure (SMILES) | Potency | activity change, negative = inhibition
1 | COc1ccc(-c2n[nH]c(=S)n2Cc2ccccc2)cc1OC | inconclusive: 141 µM [inhibitor, single point] | –
2 | O=C(CNc1ccccc1)NNC1=NCCC1 | – | inactive: 7.79%
3 | CC(=O)N1CCC2(CNS(=O)(=O)c3cnccc3O2)C1 (stereo not given) | – | inactive: 12.6% [at 6.33 µM]
4 | COc1cc(/C=C2\SC(c3ccc(C)cc3)=NC2=O)cc(OC)c1O | inconclusive: 4.47 µM [inhibitor, full curve, poor fit] | –
5 | CCC(C)(C)C1CCc2c(sc(N)c2C#N)C1 (stereo not given) | active: 28.2 µM | –
6 | CCCn1c(N)c(N(CCOC)C(=O)c2cc(Cl)nc3ccccc23)c(=O)[nH]c1=O | – | inactive: -19%
7 | CCCCn1c(N)c(N(CC(C)C)C(=O)C2CC(=O)N(c3ccccc3C(C)CC)C2)c(=O)[nH]c1=O (stereo not given) | inconclusive: 63.1 µM [inhibitor, partial curve, poor fit] | –
8 | CCc1c(C)sc(NC(=O)c2cc(C)oc2C)c1C#N | inconclusive: 50.1 µM [inhibitor, partial curve, poor fit] | –
9 | CCC(C(=O)NN1CCCCC1)c1ccccc1 (stereo not given) | – | inactive: 11.2%
10 | CCc1cccc(CC)c1NC(=O)c1c(C)oc2ccc(O)c(CN3CCN(C)CC3)c12 | – | inconclusive: -36.8% [inhibitor]
11 | Cc1nc2ncnn2c(C)c1CCC(=O)NCc1cc2n(n1)CCCNC2 | inconclusive: 15.8 µM [inhibitor, partial curve, poor fit] | –
12 | CN(C)c1ccc(C(=O)C(=O)c2ccccc2)cc1 | – | inactive: 0%
13 | CC(C)CNC(=O)NC(=O)CSc1nnc(-c2ccc(C(C)(C)C)cc2)n1Cc1ccco1 | inconclusive: 100 µM [inhibitor, partial curve, poor fit] | –
14 | O=C(CN(c1ccc(Cl)cc1)S(=O)(=O)c1ccc(Cl)c([N+](=O)[O-])c1)NCCc1ccc(F)cc1 | – | inactive: 13.6%
15 | CCC(=O)NC(c1ccco1)c1cc(Br)c2cccnc2c1O (stereo not given) | inconclusive: 2.82 µM [inhibitor, full curve, poor fit] | –
16 | CCc1ccc2nc(NC(=O)Cn3nc(C)c4ccccc4c3=O)sc2c1 | inconclusive: 79.4 µM [inhibitor, partial curve, poor fit] | –
17 | O=C(NC1(C(F)(F)F)C(=O)Nc2c1c(=O)[nH]c(=O)n2Cc1ccco1)c1ccccc1 (stereo not given) | inconclusive: 0.631 µM [inhibitor, full curve, poor fit] | –
18 | OC(c1ccc(F)c(F)c1)c1nc(-c2cccc3cccnc23)cs1 (stereo not given) | inconclusive: 3.55 µM [inhibitor, full curve, poor fit] | –

Row | Structure (SMILES) | Potency | activity change, negative = inhibition
19 | COc1ccc(-c2csc(Nc3ccc(Oc4ccccc4)cc3)n2)cc1 | – | inactive: -10.3%
20 | Cc1cc(C(=O)N2CCCCCCNC(=O)CC2c2ccccc2)nn1C (stereo not given) | inconclusive: 10 µM [inhibitor, partial curve] | –
21 | CC(=O)Oc1ccc(OC(C)=O)c2c1C1C=CC2CC1 | inconclusive: 50.1 µM [inhibitor, partial curve, poor fit] | –
22 | Fc1cccc(-c2cc3nc4c(c(N5CCC6(CC5)OCCO6)n3n2)CCCC4)c1 | – | inactive: -8.15%
23 | Cc1c(Cl)cccc1NC(C)C(=O)Nc1ccc(Cl)cn1 (stereo not given) | – | inactive: -34.7%
24 | CCOc1ccc(C(=O)NCc2nnnn2-c2ccc(C)c(C)c2)cc1OCC | inconclusive: 141 µM [inhibitor, partial curve, poor fit] | –
25 | Cc1oc2ccc(O)cc2c1C(=O)c1ccc(F)cc1 | inconclusive: 141 µM [inhibitor, single point] | –
26 | COC(=O)CNC(=O)c1ccc(C)cc1 | inconclusive: 2.24 µM [inhibitor, full curve, poor fit] | –
27 | Cc1cc(=O)oc2cc(OS(=O)(=O)c3cccc(OC(F)(F)F)c3)ccc12 | – | inactive: 31.9%
28 | COc1ccc(Cc2nc3ccc(C(=O)NCc4cc(C)no4)cc3o2)cc1 | – | inactive: 2.15%
29 | Cc1ccc(/C=C2\SC(=S)N(CC3CCCO3)C2=O)o1 (stereo not given) | active: 6.31 µM | –
30 | CCOCC1(C)COc2ccc(C(=O)Nc3cccc(N(C)C)c3)cc2N1 (stereo not given) | inconclusive: 70.8 µM [inhibitor, partial curve, poor fit] | –
31 | Cc1cccc(Nc2nc(-c3ccc(O)cc3O)cs2)n1 | active: 25.1 µM | –
32 | Cc1ccc(C(=O)CCS(=O)(=O)c2ccc(F)cc2)cc1 | inconclusive: 50.1 µM [inhibitor, partial curve, poor fit] | –
33 | Cc1ccc(NC(=O)NCc2nc(-c3ccccc3)oc2C)c(Cl)c1 | inconclusive: 0.251 µM [inhibitor, full curve, poor fit] | –
34 | Cc1cc(C)n(-c2ccc(=O)n(CC(=O)Nc3ccccc3)n2)n1 | – | inactive: -7.05%
35 | CCC(=O)C1=C(O)C(c2cccc(Oc3ccccc3)c2)CCC1=O (stereo not given) | – | inactive: -9.99%

Looked up by compound from the list above (three):
Row | Structure (SMILES) | Potency | activity change, negative = inhibition
21 | CC(=O)Oc1ccc(OC(C)=O)c2c1C1C=CC2CC1 | inconclusive: 50.1 µM [inhibitor, partial curve, poor fit] | –
29 | Cc1ccc(/C=C2\SC(=S)N(CC3CCCO3)C2=O)o1 (stereo not given) | active: 6.31 µM | –
23 | Cc1c(Cl)cccc1NC(C)C(=O)Nc1ccc(Cl)cn1 (stereo not given) | – | inactive: -34.7%
